In all, about 59,000 compounds went through this assay and about 6,500 (11%) were called active. This list was built around the results that the source calls inconclusive (neither active nor inactive); the mix of calls is not that of the screen. No stated cut-off is given here; in the data, active means max dye-equivalent concentration above about 10 nM; inconclusive means mostly about 1.1 nM to 9.6 nM; inactive means weaker than that.
Test: qHTS Assay for Spectroscopic Profiling in A350 Spectral Region
Conditions: Compound autofluorescence, 340/450 nm, Alexa 350 dye-equivalents; active compounds read high
In the case of `Cn1nc(CC(=O)Nc2ccc3c(c2)CCC3)c2ccccc2c1=O`, the max dye-equivalent concentration is reported as inconclusive: 4.2 nM.
For `CCOc1cc(NC(=O)C2CC2)c(OCC)cc1NC(=O)c1ccccn1`, the max dye-equivalent concentration was inconclusive: 2.3 nM.
For `O=c1c(-c2ccc(F)c(F)c2)nc2cncnc2n1Cc1ccc(F)cc1`, the max dye-equivalent concentration was inconclusive: 9 nM.
For `O=S(=O)(c1cccc(-c2cn3cc(Cl)ccc3n2)c1)N1CCOCC1`, the max dye-equivalent concentration was inconclusive: 1.4 nM.
With `CCCCn1c2nc3ccccc3nc2c2c(=O)n(CCC)cnc21` the max dye-equivalent concentration was active: 510 nM.
For `COc1cc(OC)c(C2N(c3ccc(Cl)c(Cl)c3)C(=O)C3CCCN32)cc1OC` (stereo not given), the max dye-equivalent concentration was inconclusive: 1.6 nM.
In the case of `CC1(C)Cc2cccc(OCC(=O)Nc3nccs3)c2O1`, the max dye-equivalent concentration is reported as “inactive”.
With `O=c1[nH]cnc2nn(-c3ccccc3)nc12` the max dye-equivalent concentration was inconclusive: 1.5 nM.
With `Cc1c(C(=O)Nc2ccncc2)oc2ccccc12` the max dye-equivalent concentration was “inactive”.
In the case of `Cc1cc(C)n2nc3nc(N4CCCC4)nc(-c4ccccc4)c3c2n1`, the max dye-equivalent concentration is reported as active: 110 nM.
In the case of `Cn1c(=O)c2cc(S(=O)(=O)NCCC(=O)NCCc3ccc(Cl)cc3)ccc2n(C)c1=O`, the max dye-equivalent concentration is reported as inconclusive: 1.6 nM.
With `CCN(CC)CCCN1C(=O)C(O)=C(C(C)=O)C1c1cccc(OC)c1` (stereo not given) the max dye-equivalent concentration was active: 12 nM.
With `O=S(=O)(NCc1ccc(F)cc1)c1ccc2c(c1)OCCO2` the max dye-equivalent concentration was “inactive”.
In the case of `O=C(c1cccnc1)N(Cc1ccccc1)c1ccccc1`, the max dye-equivalent concentration is reported as inconclusive: 2.5 nM.
In the case of `CCCCn1c(NC(C)=O)c(C#N)c2nc3ccccc3nc21`, the max dye-equivalent concentration is reported as active: 2500 nM.
In the case of `CC1(C)S[C@@H]2[C@H](NC(=O)[C@@H](NC(=O)N3CCNC3=O)c3ccccc3)C(=O)N2[C@H]1C(=O)O`, the max dye-equivalent concentration is reported as inconclusive: 1.2 nM.
For `O=C(Nc1ccc(NC(=O)c2ccco2)nc1)c1ccccn1`, the max dye-equivalent concentration was inconclusive: 1.1 nM.
With `CCOC(=O)c1ccc(-c2c(C(=O)OCC)oc3cc(O)c(CC)cc3c2=O)o1` the max dye-equivalent concentration was active: 12 nM.
With `O=C(Nc1ccc(F)c(F)c1)c1ccc(F)c(S(=O)(=O)N2CCOCC2)c1` the max dye-equivalent concentration was inconclusive: 2.9 nM.
For `N#Cc1nc(-c2ccccc2Cl)oc1N1CCOCC1`, the max dye-equivalent concentration was active: 28 nM.
In the case of `O=C(NCc1ccccn1)C1CCN(S(=O)(=O)N2CCCC2)CC1`, the max dye-equivalent concentration is reported as “inactive”.
With `CCC(CC)C(=O)NCCc1cc2c(OC)ccc(OC)c2[nH]c1=O` the max dye-equivalent concentration was inconclusive: 5.5 nM.
For `Cc1cc(NC(=O)c2cc(-c3cccnc3)nc3c(C)c(C)ccc23)no1`, the max dye-equivalent concentration was active: 30 nM.
In the case of `Cc1c(/C(O)=C2\C(=O)C(=O)N(CCCN(C)C)C2c2ccncc2)cnn1-c1ccccc1` (stereo not given), the max dye-equivalent concentration is reported as inconclusive: 1.5 nM.
In the case of `COc1cccc(C2=CC(c3ccc(C)cc3)n3ncnc3N2)c1` (stereo not given), the max dye-equivalent concentration is reported as inconclusive: 8.7 nM.
For `COc1cccc2cc(C(=O)C3=C(O)C(=O)N(Cc4ccco4)C3c3cccnc3)oc12` (stereo not given), the max dye-equivalent concentration was inconclusive: 1.3 nM.
In the case of `CCN=C1Cn2c(nc3scc(-c4ccccc4)c3c2=O)CN1CC`, the max dye-equivalent concentration is reported as active: 69 nM.
With `O=P(c1ccccc1)(c1ccccc1)C(c1ccco1)N1CCOCC1` (stereo not given) the max dye-equivalent concentration was “inactive”.
In the case of `Cn1nnc2cc(NC(=O)N3CCN(c4ccccn4)CC3)ccc21`, the max dye-equivalent concentration is reported as inconclusive: 2.5 nM.
In the case of `N#Cc1c(N)sc2c1CCN(C(=O)OCc1ccccc1)C2`, the max dye-equivalent concentration is reported as inconclusive: 2.4 nM.
For `Cn1c(=O)[nH]c(=O)c2c1nc(NCCCn1ccnc1)n2CCOc1ccccc1`, the max dye-equivalent concentration was inconclusive: 3.1 nM.
In the case of `CCn1c(=O)c(C(=O)Nc2cccnc2)c(O)c2ccccc21`, the max dye-equivalent concentration is reported as inconclusive: 4.9 nM.
In the case of `Cn1cc(C(F)(F)F)nc1-c1ccc(OC[C@@H](O)CNCCOc2ccc(O)c(C(N)=O)c2)cc1`, the max dye-equivalent concentration is reported as active: 150 nM.
In the case of `COCCn1c(=O)c(-c2ccc(OC)cc2)nc2cnc(Nc3cccc(OC)c3)nc21`, the max dye-equivalent concentration is reported as inconclusive: 1.8 nM.
For `CC(C)(C)Nc1nc(C(N)=O)nc(N2CCOCC2)n1`, the max dye-equivalent concentration was inconclusive: 5 nM.
With `CC1Cc2cc(/C(O)=C3/C(=O)C(=O)N(CCN4CCOCC4)C3c3cccc(O)c3)ccc2O1` (stereo not given) the max dye-equivalent concentration was inconclusive: 1.1 nM.
With `CN1CCN(c2ncc3nc(-c4ccccc4)c(=O)n(Cc4cccs4)c3n2)CC1` the max dye-equivalent concentration was inconclusive: 1.1 nM.
In the case of `Cn1cnnc1SCC(=O)c1cc2ccccc2oc1=O`, the max dye-equivalent concentration is reported as inconclusive: 7.7 nM.
With `Cc1c(Cc2ccccc2)c(=O)oc2c(C)c(OCc3nn[nH]n3)ccc12` the max dye-equivalent concentration was active: 51 nM.
With `O=C(COC(=O)c1cncc(Br)c1)NCCC1=CCCCC1` the max dye-equivalent concentration was inconclusive: 1.1 nM.
For `CCOc1ccc(N2C(=O)CC(Sc3nc(C)cc(C)c3C#N)C2=O)cc1` (stereo not given), the max dye-equivalent concentration was “inactive”.
For `CCC(C)Nc1nc(-c2cccc(OC)c2O)nc2ccccc12` (stereo not given), the max dye-equivalent concentration was inconclusive: 2.4 nM.
With `CN1CCN(c2oc(COc3ccc(-c4ccccc4)cc3)nc2C#N)CC1` the max dye-equivalent concentration was “inactive”.
For `COc1ccc(N(CC(=O)O)N=O)cc1`, the max dye-equivalent concentration was inconclusive: 4.1 nM.
With `CCOC(=O)c1cnc2c(C(=O)OC)cccc2c1NCc1ccco1` the max dye-equivalent concentration was active: 39 nM.

From PubChem BioAssay AID590 (National Center for Advancing Translational Sciences (NCATS), 2007)
